Laboratory results from PubChem BioAssay AID493201 (National Center for Advancing Translational Sciences (NCATS), 2011).
The shares of active, inactive and inconclusive entries below differ from those in the screen. Potencies beside an inconclusive call are fits to weak or partial responses and may not hold up. Active and inactive are the calls of the source. Calls follow the shape of the dose curve; as a rule, active = well fitted activation curve with a large enough effect; inconclusive = small, poorly fitted or top-dose-only effect; inactive = no such curve, though single readings can be large or run the other way.
Potency is read from the fitted curve at half-maximal effect.

Experiment: qHTS Assay for Identifying a Potential Treatment of Ataxia-Telangiectasia: Secondary assay (no NCS) hit validation;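 also: phosphorylated KAP1 signal as a proxy for ATM-like kinase activity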
Conditions: A-T patient fibroblasts, AlphaLISA, no DNA damage added, 90 min; series mostly up to 76.9 µM
Source text: NIH Chemical Genomics Center [NCGC]
NIH Molecular Libraries Probe Centers Network [MLPCN]
Assay Submitter (PI): Wei Zheng and Yosef Shiloh
Ataxia-telangiectasia (A-T) is a devastating and progressive disease for which, there is no cure. Although A-T is a multisystem disease, it is stereotyped characterized by its neurological symptoms such as truncal ataxia, due to cerebellar cortical degeneration of the Purkinje and granule cells. Other symptoms of A-T are telangiectasias (dilated blood vessels), primary immunodeficiency, marked sensitivity to ionizing radiation (IR), chromosomal instability and predisposition to cancer.
The underlying genetic cause of A-T is null mutations in the ATM (A-T mutated) gene. ATM is a nuclear serine/threonine kinase that functions as a master regulator of the cellular responses to double strand breaks (DSBs) in the DNA. Upon activation by DSBs, ATM phosphorylates a plethora of downstream targets, including KAP-1 on […]. KAP-1 phosphorylation occurs shortly in response to DSBs and mediates global chromatin relaxation, which facilitates DSB repair. To screen for small molecules that will compensate for the loss of ATM in cells derived from A-T patients, we monitored KAP-1 phosphorylation as a readout for ATM-like activity using an AlphaLISA assay. This secondary assay omits NCS, which creates double-stranded DNA breaks.
Step,Parameter,Value,Description
1. Cell Plating, 3 ul, 500 cells/well in OPTI-MEM, 1% FBS, 1% Pen/Strep
3. Library compounds, 23 nl, 76.7 - 0.61uM dilution series final concentration
4. Incubation, 60 min, 37C, 5% CO2, 95% humidity
6. Incubation, 30 min, 37C, 5% CO2, 95% humidity
7. Reagent, 1 ul, Premixed detection reagents and lysis buffer
8. Reagent, 1 ul, 0.6% Antifoam A
9. Incubation, 6 hr, 25C, 95% humidity
10. Readout, EnVision, EnVision plate reader. AlphaScreen 1536-well protocol
Cells were plated using medium-binding white solid-bottom tissue culture treated Kalypsys plates. Multidrop dispense of 3 uL of […] (hTERT immortalized A-T patient fibroblast cells). Detection reagent and lysis buffer was 3.75nM Rab-a-pKAP1 antibody bound to 75 ng/ul AlphaScreen SA donor bead, 3.75 nM Biot-M-a-KAP1 antibody bound to AlphaLISA protein A acceptor bead, 0.5x protease inhibitor cocktail and 0.25x PerkinElmer lysis buffer. EnVision protocol for 1536-well AlphaScreen read (30ms excitation, 100ms read), about 10 min/plate.
For `CC(=O)OC1CC[C@]2(C#N)[C@H]3CC[C@]4(C)[C@H](C5C=CC(=O)O5)CCC4(O)C3CCC2(O)C1` (some centres not stated), the Potency was inconclusive: 46.3 µM [activator, partial curve, poor fit].
For `CCCCn1c(O)c(C(=O)/C=C/c2c[nH]c3ccccc23)c(=O)[nH]c1=O`, the Potency was inconclusive: 2.07 µM [activator, full curve].
In the case of `Cc1cc(O)c2c(c1)C(=O)C13C(=C2O)C(=O)[C@H]2[C@@H](O)[C@@H]1[C@H]1[C@H](O)[C@@H]3C(=O)C3=C(O)c4c(O)cc(C)cc4C(=O)C312` (some centres not stated), the Potency was “inactive”.
For `O=C(c1cccnc1)C1CCCN(Cc2nc(-c3cnccn3)no2)C1` (configuration not stated), the Potency was inconclusive: 23.2 µM [activator, partial curve].
In the case of `S=c1[nH]nc(Cn2c(-c3ccccn3)nc3ccccc32)n1-c1ccc2c(c1)OCCO2`, the Potency was active: 41.2 µM.
In the case of `Cn1c(=O)oc2cc(S(=O)(=O)N3CCc4ccccc43)ccc21`, the Potency was inconclusive: 0.0018 µM [activator, full curve, poor fit].
For `CCCCC(=O)N/N=C/c1c(O)n(CCC2=CCCCC2)c(=O)[nH]c1=O`, the Potency was active: 14.6 µM.
